Laboratory results from patent US5837692.

Target: Egr-1 (NIH3T3 nuclear extract) (Mus musculus) (UniProt P08046)
Assay: EMSA
Settings: 20 mM HEPES pH 7.5, 70 mM KCl, 5 mM MgCl2, 100 uM ZnCl2, room temperature; retardation proportional to Egr-1 level; protein in an extract; protein details: endogenous or pCMV-Egr-1 expressed; label: 32P 5'-end

## GATCTCGCGGGGGCGAGGGGGATC (double strand) [GCE oligonucleotide (Egr-1 binding site)]
  binding result: binds

At least one result comes from cells or an extract, where the contact may be indirect.
